For 6 molecules, binding results are on record in paper doi:10.1101/2024.07.17.603870.

By UniProt entry, the sequences of proteins in these tests, tags left out.
UniProt P49597: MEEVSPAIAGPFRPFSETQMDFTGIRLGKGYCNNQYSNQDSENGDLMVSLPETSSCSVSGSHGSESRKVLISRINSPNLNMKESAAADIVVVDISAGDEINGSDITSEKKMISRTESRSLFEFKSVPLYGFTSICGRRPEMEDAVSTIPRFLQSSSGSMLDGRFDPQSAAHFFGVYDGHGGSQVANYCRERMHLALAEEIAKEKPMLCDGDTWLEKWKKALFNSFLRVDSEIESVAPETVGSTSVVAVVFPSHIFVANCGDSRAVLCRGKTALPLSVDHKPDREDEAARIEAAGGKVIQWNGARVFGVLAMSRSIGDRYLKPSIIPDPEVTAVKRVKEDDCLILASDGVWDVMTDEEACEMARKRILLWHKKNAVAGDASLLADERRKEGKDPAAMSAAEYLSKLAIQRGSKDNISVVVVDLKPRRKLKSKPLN
UniProt O04719: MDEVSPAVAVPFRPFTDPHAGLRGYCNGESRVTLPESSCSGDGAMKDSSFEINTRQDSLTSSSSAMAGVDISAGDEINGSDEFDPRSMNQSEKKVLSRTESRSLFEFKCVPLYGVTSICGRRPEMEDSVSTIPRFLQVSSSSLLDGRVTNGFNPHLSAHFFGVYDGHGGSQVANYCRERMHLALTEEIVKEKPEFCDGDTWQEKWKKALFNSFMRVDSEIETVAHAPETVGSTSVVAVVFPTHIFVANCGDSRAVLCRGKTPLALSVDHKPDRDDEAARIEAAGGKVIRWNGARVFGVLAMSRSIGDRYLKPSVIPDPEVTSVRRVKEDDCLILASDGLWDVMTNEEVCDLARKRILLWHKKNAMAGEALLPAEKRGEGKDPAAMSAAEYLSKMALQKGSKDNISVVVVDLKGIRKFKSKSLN

Holding throughout (test): two-hybrid
Test [1] concerns the target T1, ABSCISIC ACID … FIVE BINDING PROTEIN 3 (AFP3), BD fusion (Arabidopsis) (UniProt Q94F39).
T1 sequence: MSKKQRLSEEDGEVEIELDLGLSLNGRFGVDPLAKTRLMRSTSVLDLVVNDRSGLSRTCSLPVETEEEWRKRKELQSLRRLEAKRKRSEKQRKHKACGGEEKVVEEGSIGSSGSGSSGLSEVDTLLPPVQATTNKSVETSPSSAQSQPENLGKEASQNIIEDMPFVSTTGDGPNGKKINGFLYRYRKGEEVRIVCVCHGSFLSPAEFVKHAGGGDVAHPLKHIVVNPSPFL

Test [2] deals with T2, ABSCISIC ACID … FIVE BINDING PROTEIN 1 (AFP1), BD fusion (Arabidopsis) (UniProt Q9LQ98).
T2 sequence: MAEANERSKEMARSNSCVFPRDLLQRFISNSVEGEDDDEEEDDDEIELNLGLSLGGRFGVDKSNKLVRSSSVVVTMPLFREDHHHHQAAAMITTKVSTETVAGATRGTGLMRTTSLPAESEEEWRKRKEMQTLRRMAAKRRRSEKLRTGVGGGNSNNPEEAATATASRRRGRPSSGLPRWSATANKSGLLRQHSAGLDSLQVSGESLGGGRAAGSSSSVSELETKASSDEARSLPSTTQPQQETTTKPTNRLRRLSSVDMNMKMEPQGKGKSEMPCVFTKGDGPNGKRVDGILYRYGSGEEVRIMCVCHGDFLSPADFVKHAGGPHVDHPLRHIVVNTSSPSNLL

For test [3], the target named is T3, ABSCISIC ACID … FIVE BINDING PROTEIN 2 (AFP2), BD fusion (Arabidopsis) (UniProt Q9LMX5).
T3 sequence: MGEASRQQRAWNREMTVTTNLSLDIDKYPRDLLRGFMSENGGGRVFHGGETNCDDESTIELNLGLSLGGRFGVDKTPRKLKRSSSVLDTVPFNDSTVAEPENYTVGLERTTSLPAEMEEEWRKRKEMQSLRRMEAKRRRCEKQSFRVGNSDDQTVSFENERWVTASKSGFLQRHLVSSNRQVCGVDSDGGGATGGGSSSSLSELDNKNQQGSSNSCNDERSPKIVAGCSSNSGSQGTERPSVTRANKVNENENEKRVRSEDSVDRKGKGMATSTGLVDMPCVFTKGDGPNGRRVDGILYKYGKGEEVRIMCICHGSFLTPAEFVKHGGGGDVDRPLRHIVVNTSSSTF

Test [4] has as its target T4, ABSCISIC ACID … FIVE BINDING PROTEIN 4 (AFP4), BD fusion (Arabidopsis) (UniProt Q9S7Z2).
T4 sequence: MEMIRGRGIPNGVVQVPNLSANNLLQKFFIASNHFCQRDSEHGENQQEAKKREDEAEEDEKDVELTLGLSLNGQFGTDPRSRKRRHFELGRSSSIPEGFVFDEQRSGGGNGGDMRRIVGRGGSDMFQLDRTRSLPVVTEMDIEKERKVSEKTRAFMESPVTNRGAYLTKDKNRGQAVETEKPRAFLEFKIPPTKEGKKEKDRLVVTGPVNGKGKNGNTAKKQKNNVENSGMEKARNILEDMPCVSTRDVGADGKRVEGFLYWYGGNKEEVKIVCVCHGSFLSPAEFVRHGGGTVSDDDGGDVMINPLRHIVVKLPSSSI

The target in test [5] is T5, SnRK2.6, two-hybrid fusion (Arabidopsis) (UniProt Q940H6).
T5 sequence: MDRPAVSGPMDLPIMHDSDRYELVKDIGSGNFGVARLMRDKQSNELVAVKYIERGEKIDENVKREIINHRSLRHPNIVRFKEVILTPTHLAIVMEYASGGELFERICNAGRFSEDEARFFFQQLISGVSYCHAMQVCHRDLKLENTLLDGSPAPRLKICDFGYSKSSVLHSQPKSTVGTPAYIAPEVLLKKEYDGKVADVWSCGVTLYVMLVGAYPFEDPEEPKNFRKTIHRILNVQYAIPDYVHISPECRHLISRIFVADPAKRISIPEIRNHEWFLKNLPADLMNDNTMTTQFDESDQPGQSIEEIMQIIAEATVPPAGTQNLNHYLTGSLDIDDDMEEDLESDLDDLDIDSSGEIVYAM

Test [6] has as its target T1, ABSCISIC ACID … FIVE BINDING PROTEIN 3 (AFP3), BD fusion (Arabidopsis). The source holds these as a separate data set.
The target in test [7] is T2, ABSCISIC ACID … FIVE BINDING PROTEIN 1 (AFP1), BD fusion (Arabidopsis). This is another data set of the same source.
In test [8] the target is T3, ABSCISIC ACID … FIVE BINDING PROTEIN 2 (AFP2), BD fusion (Arabidopsis). This is another data set of the same source.
For test [9], the target named is T4, ABSCISIC ACID … FIVE BINDING PROTEIN 4 (AFP4), BD fusion (Arabidopsis). The source holds these as a separate data set.

Read-outs that look alike come from different tables or passages of the source. Results are given in words; binding and its absence hold for the method and conditions named. Some results given as binding are weak or reduced against the parent protein; the word gives no strength. Tags and fused reporters may be left off the sequences shown.

Consider “ABI1, two-hybrid fusion (from UniProt P49597 1-434) (enzyme)”, for which the binding result in test [1], in test [2], in test [3] and in [4] was “no binding” throughout.

For “ABI2, two-hybrid fusion (from UniProt O04719 1-423) (enzyme)”, the binding entry in test [1] is recorded as “no binding”; in test [5], “binds”; in test [2], “no binding”; in [3] it was “no binding”; in [4], “no binding”.

B1: HAI1, two-hybrid fusion (enzyme, UniProt Q9FIF5 1-413)
chain: MAEICYENETMMIETTATVVKKATTTTRRRERSSSQAARRRRMEIRRFKFVSGEQEPVFVDGDLQRRRRRESTVAASTSTVFYETAKEVVVLCESLSSTVVALPDPEAYPKYGVASVCGRRREMEDAVAVHPFFSRHQTEYSSTGFHYCGVYDGHGCSHVAMKCRERLHELVREEFEADADWEKSMARSFTRMDMEVVALNADGAAKCRCELQRPDCDAVGSTAVVSVLTPEKIIVANCGDSRAVLCRNGKAIALSSDHKPDRPDELDRIQAAGGRVIYWDGPRVLGVLAMSRAIGDNYLKPYVISRPEVTVTDRANGDDFLILASDGLWDVVSNETACSVVRMCLRGKVNGQVSSSPEREMTGVGAGNVVVGGGDLPDKACEEASLLLTRLALARQSSDNVSVVVVDLRRDT
With B1, the binding entry in test [6], in [7], in [8] and in [9] was “no binding” in each case.

B2: HAI2, two-hybrid fusion (enzyme, UniProt Q9LNW3 1-442)
chain: MADICYEDETSACESRPLWSSRKWRIGVQRFRMSPSEMNPTASTTEEEDKSEGIYNKRNKQEEYDFMNCASSSPSQSSPEEESVSLEDSDVSISDGNSSVNDVAVIPSKKTVKETDLRPRYGVASVCGRRRDMEDAVALHPSFVRKQTEFSRTRWHYFGVYDGHGCSHVAARCKERLHELVQEEALSDKKEEWKKMMERSFTRMDKEVVRWGETVMSANCRCELQTPDCDAVGSTAVVSVITPEKIIVANCGDSRAVLCRNGKAVPLSTDHKPDRPDELDRIQEAGGRVIYWDGARVLGVLAMSRAIGDNYLKPYVTSEPEVTVTDRTEEDEFLILATDGLWDVVTNEAACTMVRMCLNRKSGRGRRRGETQTPGRRSEEEGKEEEEKVVGSRKNGKRGEITDKACTEASVLLTKLALAKHSSDNVSVVVIDLRRRRKRHVA
Consider B2, for which the binding result in test [6], in test [7], in [8] and in [9] was “no binding” each time.

B3: HAB2, two-hybrid fusion (enzyme, UniProt Q9LNP9 1-511)
chain: MEEISPAVALTLGLANTMCDSGISSTFDISELENVTDAADMLCNQKRQRYSNGVVDCIMGSVSEEKTLSEVRSLSSDFSVTVQESEEDEPLVSDATIISEGLIVVDARSEISLPDTVETDNGRVLATAIILNETTIEQVPTAEVLIASLNHDVNMEVATSEVVIRLPEENPNVARGSRSVYELECIPLWGTISICGGRSEMEDAVRALPHFLKIPIKMLMGDHEGMSPSLPYLTSHFFGVYDGHGGAQVADYCHDRIHSALAEEIERIKEELCRRNTGEGRQVQWEKVFVDCYLKVDDEVKGKINRPVVGSSDRMVLEAVSPETVGSTAVVALVCSSHIIVSNCGDSRAVLLRGKDSMPLSVDHKPDREDEYARIEKAGGKVIQWQGARVSGVLAMSRSIGDQYLEPFVIPDPEVTFMPRAREDECLILASDGLWDVMSNQEACDFARRRILAWHKKNGALPLAERGVGEDQACQAAAEYLSKLAIQMGSKDNISIIVIDLKAQRKFKTRS
For the molecule B3, the binding result in test [6], in [7], in [8] and in test [9] was “no binding” in each case.

B4: ABA … …ON 1 (AHG1), two-hybrid fusion (enzyme, UniProt Q9FLI3 1-416)
chain: MTEIYRTISTGRGDDVSPTKCRERRRRRIEMRRQAAVFGEPSSSRNRDRTDMEVYSSFDVPLRKQARRSEIGGLPADIGGFLAPPAASSCQKSEAPVWKGEETEDEPLYGIVSVMGRSRKMEDSVTVKPNLCKPEVNRQRPVHFFAVYDGHGGSQVSTLCSTTMHTFVKEELEQNLEEEEEGSENDVVERKWRGVMKRSFKRMDEMATSTCVCGTSVPLCNCDPREAAISGSTAVTAVLTHDHIIVANTGDSRAVLCRNGMAIPLSNDHKPDRPDERARIEAAGGRVLVVDGARVEGILATSRAIGDRYLKPMVAWEPEVTFMRRESGDECLVLASDGLWDVLSSQLACDIARFCLREETPSSLDLNRMAQEDDNDGEQNPSRSVLAATLLTRLALGRQSSDNISVVVIDLKNSSQ
On to B4, for which the binding result in [6], in [7], in test [8] and in test [9] was “binds” each time.
